{
  "source": "PubChem BioAssay AID1347075",
  "about": "(National Center for Advancing Translational Sciences (NCATS), 2019)",
  "note": "Among all 400,000 compounds or so, about 5,500 (1.4%) were called active. This list was built around the results that the source calls inconclusive (neither active nor inactive); the mix of calls is not that of the screen. Calls follow the shape of the dose curve; as a rule, active = well fitted cell-killing curve with a large enough effect; inconclusive = small, poorly fitted or top-dose-only effect, or effect the other way; inactive = flat fitted curve, though single readings scatter. Potencies of inconclusive entries are doubtful fits and often do not repeat. Potency is read from the fitted curve at half-maximal effect.",
  "data": [
    {"test": "qHTS assay for MDR1-selective chemotherapeutics: Primary screen using the parental adenocarcinoma cell KB-3-1; also: nearly all actives have a fitted effect of over 60% in size", "settings": "KB-3-1 viability, CellTiter-Glo ATP luminescence, 72 h; series mostly up to 46.1 µM", "procedure,_shortened": "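Multi-concentration cytotoxicity screen in KB-3-1 cells grown in DMEM lacking phenol red with 10% FBS. After 72 h at 37 °C with compound, ATP-dependent luminescence was recorded.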", "values": [
      {"compound": "Cc1cccc(N(CC(=O)NCc2ccc(F)cc2)C(=O)c2ccco2)c1", "Potency": "inactive"},
      {"compound": "Cc1ccc(CN(Cc2cccnc2)C(=O)CN2C(=O)COc3ccccc32)o1", "Potency": "inactive"},
      {"compound": "CC(=O)c1cn(CC(=O)Nc2c(C)cccc2C)c2ccccc12", "Potency": "inconclusive: 20.6 µM [cytotoxic, partial curve]"},
      {"compound": "O=C1CNC(=O)/C(=C/c2ccco2)N1", "Potency": "inconclusive: 14.6 µM [cytotoxic, partial curve, poor fit]"},
      {"compound": "CCOC(=O)c1c(C)[nH]c(C(=O)COC(=O)CCSc2ccccc2)c1C", "Potency": "inconclusive: 0.0517 µM [cytotoxic, full curve, poor fit]"},
      {"compound": "O=C(Nc1ccc(N2CCCCC2)cc1)c1ccc([N+](=O)[O-])o1", "Potency": "inconclusive: 20.6 µM [cytotoxic, single point]"},
      {"compound": "Cc1[nH]n(-c2ccc([N+](=O)[O-])cc2)c(=O)c1C=NCCN1CCN(C(=O)c2ccc(Br)cc2)CC1", "Potency": "inconclusive: 29.1 µM [cytotoxic, single point]"},
      {"compound": "COc1cc(NC(=O)CN(c2ccc(C)cc2)S(=O)(=O)c2c(C)noc2C)cc(OC)c1", "Potency": "inconclusive: 29.1 µM [cytotoxic, single point]"},
      {"compound": "N=c1oc2cc(O)ccc2cc1C(=O)Nc1ccc(Br)cc1", "Potency": "active: 23.1 µM"},
      {"compound": "COc1ccc(-c2cc3ccccc3oc2=O)cc1NC(=O)c1cccnc1", "Potency": "inactive"},
      {"compound": "COc1ccc(OCC(=O)N2CCN(c3nnc(-c4ccc(C)cc4)c4ccccc34)CC2)cc1", "Potency": "inconclusive: 23.1 µM [cytotoxic, single point]"},
      {"compound": "O=[N+]([O-])c1ccc(N/N=C2/CCCCC2c2ccccn2)cc1", "note": "(stereo unspecified)", "Potency": "inconclusive: 23.1 µM [cytotoxic, single point]"},
      {"compound": "CCOC(=O)C1CCN(C(c2cccnc2)c2c(NC(=O)c3ccco3)sc(C)c2C)CC1", "note": "(stereo unspecified)", "Potency": "active: 3.26 µM"},
      {"compound": "COCCCn1c(=N)c(C(=O)NC2CCCC2)cc2c(=O)n3cc(C)ccc3nc21", "Potency": "inconclusive: 18.4 µM [rising, single point]"},
      {"compound": "Cc1cccc(C(=O)Nc2nnc(S(=O)(=O)N3c4ccccc4CC3C)s2)c1", "note": "(stereo unspecified)", "Potency": "inactive"},
      {"compound": "CCc1ccc2c(c1)C1(C(=O)N2)N2CCCC2C(C(=O)c2ccc3ccccc3c2)C12C(=O)Nc1ccccc12", "note": "(stereo unspecified)", "Potency": "inconclusive: 29.1 µM [cytotoxic, single point]"},
      {"compound": "Cc1ccc(Nc2nnc(SCC(=O)c3cc4ccccc4o3)s2)cc1C", "Potency": "inconclusive: 29.1 µM [cytotoxic, single point]"},
      {"compound": "Cc1cc(=O)n(C)c(=O)n1CCCCCCOc1cccc([N+](=O)[O-])c1", "Potency": "inconclusive: 32.6 µM [cytotoxic, single point]"},
      {"compound": "COc1cccc(C2=CC(c3ccccc3)n3nnnc3N2)c1", "note": "(stereo unspecified)", "Potency": "inconclusive: 29.1 µM [cytotoxic, single point]"},
      {"compound": "O=C(CBr)c1ccc(Oc2ccc(C(=O)C[n+]3ccccc3Cl)cc2)cc1", "Potency": "inactive"},
      {"compound": "CNC(=O)COC(=O)c1ccc(-c2nc3ccccc3s2)s1", "Potency": "inconclusive: 10.3 µM [cytotoxic, partial curve, poor fit]"},
      {"compound": "COc1ccc(CCNC(=O)Nc2nc(C(N)C3CCCCC3)cs2)cc1OC", "note": "(stereo unspecified)", "Potency": "inconclusive: 23.1 µM [cytotoxic, single point]"},
      {"compound": "CN(c1cccc(NC(=O)CSc2ccc(Cl)cc2)c1)S(C)(=O)=O", "Potency": "inconclusive: 16.4 µM [cytotoxic, partial curve, poor fit]"},
      {"compound": "Nc1nc(SCC(=O)O)c2[nH]cnc2n1", "Potency": "inconclusive: 32.6 µM [rising, single point]"},
      {"compound": "Cc1ccc(C)c2sc(N3CCN(C(=O)c4ccc([N+](=O)[O-])o4)CC3)nc12", "Potency": "inconclusive: 18.4 µM [cytotoxic, single point]"},
      {"compound": "CCN(CC)S(=O)(=O)c1ccc(C2=NOC3(C2)N(C)c2ccccc2C3(C)C)cc1", "note": "(stereo unspecified)", "Potency": "inconclusive: 8.2 µM [cytotoxic, partial curve, poor fit]"},
      {"compound": "COCCn1c(C)cc(C2=NNC(=Nc3ccc(F)cc3)SC2)c1C", "Potency": "inconclusive: 29.1 µM [cytotoxic, single point]"},
      {"compound": "O=C(OCCCOC(=O)c1ccc([N+](=O)[O-])o1)c1ccc([N+](=O)[O-])o1", "Potency": "inactive"},
      {"compound": "CN(CCO)c1nc(N)c(C#N)c(CC#N)c1C#N", "Potency": "inconclusive: 29.1 µM [cytotoxic, single point]"},
      {"compound": "CCCCCCNc1c([N+](=O)[O-])c(=O)sc2ccccc12", "Potency": "inconclusive: 18.4 µM [cytotoxic, single point]"},
      {"compound": "Cc1cc(N(C)C)c(C)cc1/C=C/c1ccnc2ccccc12", "Potency": "active: 2.91 µM"},
      {"compound": "CCn1c(-c2ccc(-c3ccccc3)cc2)c[nH]c1=S", "Potency": "inconclusive: 20.6 µM [cytotoxic, single point]"},
      {"compound": "CN1CCN(CCCNc2c(C=O)c(=O)[nH]c3ccccc23)CC1", "Potency": "inactive"},
      {"compound": "CC1(C)COC(Cn2c3ccccc3c3ccccc32)O1", "note": "(stereo unspecified)", "Potency": "inconclusive: 0.0116 µM [rising, full curve]"},
      {"compound": "Cc1cc(NC(=O)c2ccc(Cl)c(S(=O)(=O)N3CCCCC3)c2)no1", "Potency": "inconclusive: 20.6 µM [cytotoxic, single point]"},
      {"compound": "CCOC(=S)SCC(=O)Nc1nc(-c2ccc(Br)cc2)cs1", "Potency": "active: 5.17 µM"},
      {"compound": "COc1ccc(C(=O)NC(C(=O)NCC2CCCO2)C(C)C)cc1", "note": "(stereo unspecified)", "Potency": "inactive"},
      {"compound": "C/C(=N\\NC(=S)NC1CCCCC1)c1ccc(OC(F)F)cc1OC(F)F", "Potency": "inconclusive: 23.1 µM [cytotoxic, single point]"},
      {"compound": "CCOCCn1c(CN2CCN(c3ccc(F)cc3)CC2)nc2c1c(=O)n(C)c(=O)n2C", "Potency": "inconclusive: 11.6 µM [cytotoxic, partial curve]"},
      {"compound": "COC(=O)Cc1ccc(NC(=O)c2ccc(C(C)(C)C)cc2)cc1", "Potency": "inconclusive: 18.4 µM [cytotoxic, single point]"},
      {"compound": "CCN(c1cccc(C(F)(F)F)c1)S(=O)(=O)c1ccc2c(c1)CCN2C(C)=O", "Potency": "inconclusive: 23.1 µM [cytotoxic, single point]"},
      {"compound": "C=CCn1c(-c2ccc(OC)c(OC)c2)n[nH]c1=S", "Potency": "inconclusive: 29.1 µM [cytotoxic, single point]"},
      {"compound": "Cc1ccc(-n2ncc3c2CCCC3NC(=O)CCN2CCCC2=O)cc1C", "note": "(stereo unspecified)", "Potency": "inactive"},
      {"compound": "CCOC(=O)c1cccc(NC(=O)C2CCN(S(=O)(=O)c3cccs3)CC2)c1", "Potency": "inconclusive: 29.1 µM [cytotoxic, single point]"},
      {"compound": "CN(C)c1ccc(NC(=S)N(CCc2ccccc2)C2CC(=O)N(c3c(Cl)cccc3Cl)C2=O)cc1", "note": "(stereo unspecified)", "Potency": "inconclusive: 29.1 µM [cytotoxic, single point]"},
      {"compound": "COc1ccc(S(=O)(=O)Nc2cccc3c2O[C@H](CN(C)Cc2ccc(Oc4ccccc4)cc2)[C@@H](C)CN([C@H](C)CO)C3=O)cc1", "Potency": "inconclusive: 29.1 µM [cytotoxic, single point]"},
      {"compound": "O=[N+]([O-])c1ccc(O)c(CSc2nnnn2-c2ccccc2)c1", "Potency": "inactive"},
      {"compound": "Cc1nn(-c2ccccc2)c(C)c1/C=N/NC(=O)c1cc(-c2ccc(Br)s2)[nH]n1", "Potency": "inconclusive: 29.1 µM [cytotoxic, single point]"},
      {"compound": "COC(=O)c1ccc(NC(=O)c2c(NCc3ccc(OC)c(OC)c3)sc3c2CCCC3)cc1", "Potency": "inactive"},
      {"compound": "COc1ccc(-c2cc3c(=O)n(CC(=O)NCc4ccc(F)cc4)ncn3n2)cc1", "Potency": "inconclusive: 6.51 µM [cytotoxic, partial curve]"},
      {"compound": "C=CCCC(=O)Nc1nc(C)c(-c2csc(Nc3cc(OC)ccc3OC)n2)s1", "Potency": "inconclusive: 3.66 µM [cytotoxic, full curve, poor fit]"},
      {"compound": "Cn1c(=O)c2cc(S(=O)(=O)Nc3ccc4c(c3)OCO4)ccc2n(C)c1=O", "Potency": "inconclusive: 14.6 µM [cytotoxic, single point]"},
      {"compound": "Cc1ccc2[nH]c3c(NCc4ccco4)ncnc3c2c1", "Potency": "active: 13 µM"},
      {"compound": "CCN1CCN(/C=N/c2nc(C)cs2)CC1", "Potency": "inactive"},
      {"compound": "O=C1c2ccccc2S(=O)(=O)c2cc(N3CCC(C(=O)N4CCCCC4)CC3)ccc21", "Potency": "inconclusive: 29.1 µM [cytotoxic, single point]"},
      {"compound": "Cc1ccccc1CN(c1ccc(C(=O)N2CCc3ccccc3C2)cc1)S(C)(=O)=O", "Potency": "active: 10.3 µM"},
      {"compound": "C[C@@H]1[C@@H](Sc2ccccc2)CC(=O)O[C@@H]1c1ccc(-c2ccccc2)cc1", "Potency": "inconclusive: 16.4 µM [cytotoxic, single point]"},
      {"compound": "O=C(CSc1ccc2ccccc2n1)N/N=C/c1ccccc1O", "Potency": "inconclusive: 29.1 µM [cytotoxic, single point]"},
      {"compound": "Cc1cc(C(=O)OCC(=O)Nc2cc(S(=O)(=O)N(C)C)ccc2Cl)c2ccccc2n1", "Potency": "inconclusive: 16.4 µM [cytotoxic, single point]"},
      {"compound": "CCN(CC)C(=O)C1=C(C)N(Cc2ccc(C(C)(C)C)cc2)C(=O)C(CC(=O)NCc2cccc3ccccc23)C1", "note": "(stereo unspecified)", "Potency": "inconclusive: 32.6 µM [cytotoxic, partial curve, poor fit]"},
      {"compound": "Cc1cccn2c(=O)c3cc(C(=O)NCC4CCCO4)c(=N)n(C4CCCCC4)c3nc12", "note": "(stereo unspecified)", "Potency": "inactive"},
      {"compound": "Cc1ccc(CNC(=O)Cn2cc(C(=O)c3ccc(Cl)cc3)c(=O)c3ccc(C)nc32)cc1", "Potency": "inactive"},
      {"compound": "C/C(=N\\NC(=O)c1cccc(Br)c1)c1ccccn1", "Potency": "inconclusive: 9.2 µM [cytotoxic, partial curve, poor fit]"},
      {"compound": "Cc1ccc(-c2nnc3n2N=C(c2ccccc2)CS3)cc1", "Potency": "inactive"},
      {"compound": "Cc1onc(-c2ccccc2)c1CNC(=O)Nc1ccc(C(F)(F)F)cc1", "Potency": "inconclusive: 29.1 µM [cytotoxic, single point]"},
      {"compound": "O=C(Nc1cc(S(=O)(=O)N2CCOCC2)ccc1N1CCCC1)c1ccccc1F", "Potency": "inactive"}
    ]}
  ]
}
